Source: PubChem BioAssay AID493014 (National Center for Advancing Translational Sciences (NCATS), 2011)
The list shows a part of the results. The main result of the screen is listed elsewhere. These columns were measured beside it and carry no call. Compounds called inactive in the main read-out are mostly missing here. Potencies come from curve fits of mixed quality, noted in brackets.

Assay: qHTS Assay to Find Inhibitors of Chronic Active B-Cell Receptor Signaling
Settings: ABC-DLBCL IkBa-CBG/CBR reporter, luminescence ratio (green luciferase fused to IkBa over red control in TMD8 lymphoma cells), 4 h
How it was run: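 Doxycycline induced both beetle luciferases in TMD8 lymphoma cells; IKK-driven degradation limits the IkappaBalpha-fused green signal, while red luminescence normalises for cell number and nonspecific effects. Compounds tested up to 46 uM, 4 hrs.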

[1] = measured here: CBR red luminescence, cell number
[2] = measured here: IkBa-CBG green luminescence

Row | Compound | AC50 [1] | AC50 [2]
1 | Cc1cc(-c2ccccc2)c2c3c(cn2n1)c(=O)n(C)c(=O)n3C | 23.1 µM [falling, single point] | –
2 | COC(=O)CCC(=O)NC(=S)Nc1ccccc1F | 5.62 µM [falling, partial curve, poor fit] | –
3 | COC(=O)C(NC(=O)c1ccc(F)cc1)(Nc1ncc(S(=O)(=O)c2ccc([N+](=O)[O-])cc2)s1)C(F)(F)F (stereo unspecified) | 35.5 µM [falling, partial curve, poor fit] | –
4 | CCOc1ccc(NC(=O)Nc2cc(OCC(F)(F)F)cc(OCC(F)(F)F)c2)cc1 | 16.4 µM [falling, partial curve, poor fit] | –
5 | CCCCn1c(N)c(N(CCOC)C(=O)CSCc2ccc(C)cc2)c(=O)[nH]c1=O | 3.66 µM [rising, partial curve, poor fit] | –
6 | OC(CNCCNc1ncccc1C(F)(F)F)Cn1ccc2ccccc21 (stereo unspecified) | 12.6 µM [falling, single point] | –
7 | O=C1C2C(C(=O)N1CCc1ccccc1)C1C=CC2C12CC2 (stereo unspecified) | 16.4 µM [rising, partial curve, poor fit] | –
8 | CCOC(=O)CN1CCc2c(C)nc3c(-c4ccc(OC)c(OC)c4)cnn3c21 | 29.1 µM [rising, partial curve, poor fit] | –
9 | COc1ccc(OCCCC(=O)NCCc2ccccc2)cc1 | 11.6 µM [rising, partial curve, poor fit] | –
10 | COCC(=O)N(C)C1(c2nnnn2CCOC(=O)Nc2cccc3ccccc23)CCCC1 | 3.66 µM [falling, partial curve, poor fit] | –
11 | NC(=S)n1[nH]c(-c2ccc([N+](=O)[O-])cc2)c(N=Nc2cccc(Cl)c2)c1=O | 3.55 µM [rising, partial curve, poor fit] | 3.55 µM [falling, full curve]
12 | N=c1n(Cc2ccccc2Cl)c2ccccc2n1CC(O)c1ccco1 (stereo unspecified) | 14.1 µM [falling, single point] | –
13 | O=C(O)CCc1ccc(-c2cccs2)n1-c1ccc(C(=O)O)cc1 | 35.5 µM [falling, single point] | –
14 | O=C(CN(C(=O)CNC(=O)c1cccs1)c1ccccc1F)NC1CCCCC1 | 15.8 µM [falling, partial curve, poor fit] | –
15 | O=[N+]([O-])c1ccc2nc(-c3ccccn3)[nH]c2c1 | 35.5 µM [falling, single point] | –
16 | O=C1C(Cl)=C(NCc2cccnc2)C(=O)c2ccccc21 | 35.5 µM [falling, single point] | 20 µM [rising, single point]
17 | COc1cc(OC)cc(C(=O)N2CC(=O)Nc3ccccc32)c1 | 0.501 µM [rising, full curve, poor fit] | 22.4 µM [falling, partial curve, poor fit]
18 | CC(C)c1ccc(NC(=O)C2CCCCN2S(=O)(=O)c2ccccc2)cc1 (stereo unspecified) | 2.06 µM [rising, partial curve, poor fit] | –
19 | COc1cc(-c2nc3cnccn3c2NC(C)(C)CC(C)(C)C)ccc1O | – | 3.55 µM [falling, partial curve, poor fit]
20 | COc1cc(NC(=O)c2c(OC)cccc2OC)ccc1NC(=O)c1cc2ccccc2o1 | 14.1 µM [rising, partial curve, poor fit] | –

Molecules listed so far with a CF3 group, in the order listed:
Row | Compound | AC50 [1] | AC50 [2]
3 | COC(=O)C(NC(=O)c1ccc(F)cc1)(Nc1ncc(S(=O)(=O)c2ccc([N+](=O)[O-])cc2)s1)C(F)(F)F (stereo unspecified) | 35.5 µM [falling, partial curve, poor fit] | –
4 | CCOc1ccc(NC(=O)Nc2cc(OCC(F)(F)F)cc(OCC(F)(F)F)c2)cc1 | 16.4 µM [falling, partial curve, poor fit] | –
6 | OC(CNCCNc1ncccc1C(F)(F)F)Cn1ccc2ccccc21 (stereo unspecified) | 12.6 µM [falling, single point] | –

Next compounds

Row | Compound | AC50 [1] | AC50 [2]
21 | COC(=O)C1CCCN1C(=O)COc1ccc(Cl)cc1Br (stereo unspecified) | 29.1 µM [rising, single point] | –
22 | CCc1ccccc1NC(=O)CSc1nnc([C@@H]2CCCN2C(=O)OC(C)(C)C)o1 | 22.4 µM [falling, single point] | 28.2 µM [rising, partial curve, poor fit]
23 | Cc1nc2ccccc2c2oc(C(=O)NCCCN3CCCC(C)C3)cc12 (stereo unspecified) | 35.5 µM [falling, single point] | –
24 | CCN(CC)CCCN=C1N[C@@H](c2cccc(C(F)(F)F)c2)C(C(=O)OC)=C(C)N1CC | 16.4 µM [falling, partial curve] | –
25 | Cc1ccc(NC(=O)c2cc(C)n(-c3ccccc3)c2C)cc1 | 6.51 µM [falling, partial curve, poor fit] | –
26 | Cc1nc(NCc2ccco2)c2c(C)c(C)sc2n1 | 32.6 µM [falling, single point] | 16.4 µM [rising, partial curve, poor fit]
27 | CC(=O)Nc1ccc(C2=NNC(=Nc3ccc(S(=O)(=O)N4CCOCC4)cc3)SC2)cc1 | 6.31 µM [rising, full curve, poor fit] | –
28 | O=C(OCC1COc2ccccc2O1)c1c(F)cccc1F (stereo unspecified) | 3.16 µM [rising, full curve] | –
29 | Cc1ccc(OCc2ccccc2Br)c([N+](=O)[O-])n1 | 22.4 µM [rising, single point] | –
30 | CCOc1ncccc1C(=O)Nc1ccc(F)c(F)c1 | 15.8 µM [falling, single point] | –
31 | Cc1ccc(-c2nc(C)c(C(=O)O)s2)cc1 | 0.891 µM [falling, full curve] | –
32 | CC(C)Oc1ccc(C(=O)N/N=C/c2ccc(-c3ccc(S(=O)(=O)Nc4ncccn4)cc3)o2)cc1 | 4.11 µM [falling, full curve, poor fit] | –
33 | C=CCOC(=O)C1=C(C)NC(SC)=C(C#N)C1c1cccs1 (stereo unspecified) | 11.2 µM [falling, partial curve, poor fit] | –
34 | CCCCOC(=O)c1nnc(-c2ccccc2)o1 | 25.1 µM [falling, single point] | –
35 | CCOc1cc(N2CCOCC2)c(OCC)cc1NC(=O)CSc1ncccn1 | 2.51 µM [rising, partial curve, poor fit] | –
36 | CC1=NN(C(=O)c2ccoc2C)C(O)(C(F)(F)F)C1 (stereo unspecified) | 22.4 µM [falling, single point] | –
37 | O=C(NC(=S)Nc1cccc([N+](=O)[O-])c1)c1ccccc1 | 11.2 µM [falling, partial curve] | –
38 | CCOC(=O)c1c(C)n(-c2ccccc2)c2ccc(OCCN(C)C)cc12 | 11.2 µM [falling, single point] | –
39 | COc1ccc(C(=O)Cn2cnc3ccccc3c2=O)cc1 | 11.2 µM [falling, single point] | –
40 | CCC(=O)Oc1ccc(-c2nc(-c3cccnc3)no2)cc1 | 20 µM [falling, single point] | –

Row | Compound | AC50 [1] | AC50 [2]
41 | CN(C)c1ccc(NC(=O)c2ccc(Cn3cc([N+](=O)[O-])cn3)cc2)cc1 | 22.4 µM [rising, single point] | –
42 | O=C(NC1CC1)c1ccc(-c2nc3ccccc3s2)s1 | 6.31 µM [falling, full curve, poor fit] | –
43 | O=C(Nc1cccc(NC(=O)c2ccco2)c1)c1cnccn1 | 14.6 µM [falling, partial curve] | –
44 | COc1ccccc1C(=O)Nc1ccc(S(=O)(=O)Nc2cc(C)nc(C)n2)cc1 | 29.1 µM [rising, single point] | –
45 | CCCCOCCCNC(=O)c1ccc(NC(C)=O)cc1 | 29.1 µM [rising, single point] | –
46 | CCc1sc(C(=O)Nc2ccc(F)cc2C)cc1C | 23.1 µM [falling, partial curve, poor fit] | –
47 | Cc1ccc(N2C(=O)N(CC(=O)C(C)(C)C)c3ccccc3S2(=O)=O)cc1 | 25.1 µM [rising, partial curve, poor fit] | –
48 | Cc1ccc(N2C(=O)C3CCC(C)(C2=O)C3(C)C)cc1 (stereo unspecified) | 10 µM [rising, partial curve, poor fit] | –
49 | c1ccc(Cn2c(CNc3nc4ccccc4n3CCN3CCCCC3)nc3ccccc32)cc1 | 4.11 µM [falling, full curve, poor fit] | –
50 | COc1ccc(C(=O)NCCc2ccc(F)cc2)cc1OC | 17.8 µM [falling, single point] | –
51 | CCOC(=O)C1=C(CSc2nc(CC)c(C)cc2C#N)OC(N)=C(C#N)C1c1ccc(OC)cc1 (stereo unspecified) | 1.46 µM [falling, partial curve, poor fit] | –
52 | CN(C)CCCN(C(=O)/C=C/c1cccs1)c1nc2c(F)cccc2s1 | 12.6 µM [falling, partial curve, poor fit] | 12.6 µM [rising, partial curve, poor fit]
53 | CCOC(=O)c1[nH]c(C)c(CC(C)C)c1C | 14.1 µM [rising, single point] | –
54 | CCOC(=O)[C@H]1[C@H]2COc3ccc(C)cc3[C@@H]2N2C(=O)CN(Cc3ccc(Cl)cc3)C(=O)[C@@]12C | 6.51 µM [falling, single point] | –
55 | COc1ccc(C(=O)Nc2ccc3c(c2)OCO3)cc1OC | 25.1 µM [falling, partial curve, poor fit] | –
56 | CCOc1ccc(NC(=S)NNC(=O)CC(C)O)cc1 (stereo unspecified) | 0.282 µM [rising, full curve, poor fit] | –
57 | Cc1ccc(-c2csc(NC(=O)c3ccc(F)cc3)c2C(=O)O)cc1 | 5.01 µM [falling, partial curve, poor fit] | –
58 | O=C(c1ccc(F)cc1)[C@@H]1[C@@H](C(=O)c2ccccc2)[C@@]2(C(=O)Nc3ccccc32)[C@H]2c3ccccc3C=CN12 | 18.4 µM [falling, partial curve, poor fit] | –
59 | O=C(Cc1cccs1)Nc1ccc2c(c1)C(=O)OC2 | 0.291 µM [rising, full curve, poor fit] | –
60 | COc1ccccc1CNC(=O)CCS(=O)(=O)c1ccc2c(c1)CCCN2C(C)=O | 35.5 µM [rising, single point] | –
